In assay [1] the test system is Acinetobacter baumannii NCTC-13301. Kind of assay: percent growth inhibition of drug alone vs DMSO control; higher = more growth inhibition. The settings on record: antibiotic (0.125x MIC): none (0.1% DMSO).
Assay [2] shares this test system. Kind of assay: percent growth inhibition of drug + antibiotic vs DMSO control; higher = more growth inhibition.
Assay [3] relates to Acinetobacter baumannii WP-487. Kind of assay: percent growth inhibition of drug alone vs DMSO control; higher = more growth inhibition. Conditions: antibiotic (0.125x MIC): none (0.1% DMSO).
[4] abbreviates: antibiotic (0.125x MIC): ciprofloxacin, 7 µM.
[5] abbreviates: antibiotic (0.125x MIC): ciprofloxacin, 20 µM.
[6] abbreviates: antibiotic (0.125x MIC): gentamicin, 7 µM.
Setting [7] is: antibiotic (0.125x MIC): gentamicin, 20 µM.
The mark [8] stands for this setting: antibiotic (0.125x MIC): meropenem, 7 µM.
Setting [9] is: antibiotic (0.125x MIC): meropenem, 20 µM.
[10] abbreviates: antibiotic (0.125x MIC): tigecycline, 7 µM.
[11] abbreviates: antibiotic (0.125x MIC): tigecycline, 20 µM.

The source of these data is the supplement of paper PMC6658780.

The structures appear in SMILES notation. Structures can show the parent of a compound that is named as a salt. ± gives the standard deviation of the averaged measurements. This is one part of the list. Single values are uncertain here, since repeats match poorly.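 Clinical A. baumannii isolates resistant to the partner antibiotic were chosen, and the screen identifies drugs restoring that antibiotic's activity. Subtracting the initial incubation reading corrects for coloured-compound background.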

`COc1cc(C(=O)NS(=O)(=O)c2ccccc2C)ccc1Cc1cn(C)c2ccc(NC(=O)OC3CCCC3)cc12` [Zafirlukast]: the “percent growth inhibition of drug alone” value in assay [1] (7 µM) was -97.6 ± 110%; in assay [1] (20 µM), -106 ± 110%. Moreover, the percent growth inhibition in assay [2] (setting [4]) was -1.48 ± 6.1%; in assay [2] (setting [5]), -7.92 ± 7%; in assay [2] (setting [6]), -0.551 ± 1.3%; in assay [2] (setting [7]) it was -31.2 ± 22%; in assay [2] (setting [8]), 0.489 ± 0.034%; in assay [2] (setting [9]), -0.302 ± 5.9%. The percent growth inhibition in assay [2] (setting [10]) was -4.64 ± 3.1%; in assay [2] (setting [11]), -54.2 ± 64%.

On to `N=C(NCCCCCCNC(=N)NC(=N)Nc1ccc(Cl)cc1)NC(=N)Nc1ccc(Cl)cc1` [Chlorhexidine], for which the entries for the “percent growth inhibition of drug alone” value in assay [1] (7 µM) and in assay [1] (20 µM) were 21 ± 1.6% and 99.67 ± 0.41%, respectively. In addition, the percent growth inhibition in assay [2] (setting [4]) was 74.1 ± 1.5%; in assay [2] (setting [5]), 100.2 ± 0.26%; in assay [2] (setting [8]), 93 ± 9.9%; in assay [2] (setting [9]), 99.67 ± 0.38%.

For the molecule `C=C1/C(=C\C=C2/CCC[C@]3(C)[C@@H]([C@H](C)CCCC(C)C)CC[C@@H]23)C[C@@H](O)C[C@@H]1O` [Alfacalcidol], the “percent growth inhibition of drug alone” value in assay [1] (7 µM) is -13.6 ± 18%; in assay [1] (20 µM) it was -104 ± 1.4%. Further, the percent growth inhibition in assay [2] (setting [4]) was -14 ± 17%; in assay [2] (setting [5]), -39.4 ± 29%; in assay [2] (setting [6]), -61.6 ± 40%; in assay [2] (setting [7]), -80.4 ± 13%; in assay [2] (setting [8]), -4.14 ± 11%; in assay [2] (setting [9]), -32.6 ± 42%. Besides, the values for the percent growth inhibition in assay [2] (setting [10]) and in assay [2] (setting [11]) were -54.1 ± 76% and -74 ± 16%, respectively.

Regarding `Cc1cc(N)c2ccccc2[n+]1CCCCCCCCCC[n+]1c(C)cc(N)c2ccccc21` [Dequalinium dichloride], the “percent growth inhibition of drug alone” value was 1.17 ± 3.6% in assay [1] (7 µM), 8.34 ± 2.6% in assay [1] (20 µM), 6.17 ± 2.7% in assay [3] (7 µM) and 7.14 ± 12% in assay [3] (20 µM). Moreover, the results for the percent growth inhibition in assay [2] (setting [4]) and in assay [2] (setting [5]) were 28.4 ± 0.56% and 64.5 ± 6.8%, respectively.

On to `CC[C@H]1OC(=O)[C@H](C)[C@@H](O[C@H]2C[C@@](C)(OC)[C@@H](O)[C@H](C)O2)[C@H](C)[C@@H](O[C@@H]2O[C@H](C)C[C@H](N(C)C)[C@H]2O)[C@](C)(O)C[C@@H](C)C(=O)[C@H](C)[C@@H](O)[C@]1(C)O` [Erythromycin], for which the “percent growth inhibition of drug alone” value in assay [1] (7 µM) was found to be 13.2 ± 0.32%; in assay [1] (20 µM) it was 55.3 ± 3.2%. Besides, the percent growth inhibition in assay [2] (setting [8]) came out at 13.9 ± 3.3%; in assay [2] (setting [9]) it was 93.5 ± 5.8%.

As for `CCC(Cc1c(I)cc(I)c(N)c1I)C(=O)O` (configuration not stated) [Iopanoic acid], the entries for the “percent growth inhibition of drug alone” value in assay [1] (7 µM) and in assay [1] (20 µM) were -7.62 ± 12% and -11.9 ± 4.7%, respectively. Further, the values for the percent growth inhibition in assay [2] (setting [8]) and in assay [2] (setting [9]) were 8.2 ± 13% and -0.229 ± 4.7%, respectively.

Regarding `CN(C)[C@@H]1C(O)=C(C(N)=O)C(=O)[C@@]2(O)C(O)=C3C(=O)c4c(O)ccc(Cl)c4[C@@H](O)[C@H]3C[C@@H]12` [Demeclocycline hydrochloride], the “percent growth inhibition of drug alone” value in assay [1] (7 µM) came out at 36.4 ± 11%; in assay [1] (20 µM) it was 99.4 ± 0.2%. In addition, the figures for the percent growth inhibition in assay [2] (setting [8]) and in assay [2] (setting [9]) were 71.2 ± 20% and 99.76 ± 0.13%, respectively.

In the case of `CCCCCNC(=N)N/N=C/c1c[nH]c2ccc(OC)cc12` [Tegaserod maleate], the “percent growth inhibition of drug alone” value was 8.19 ± 1.1% in assay [1] (7 µM) and -16.2 ± 44% in assay [1] (20 µM). The percent growth inhibition is 8.83 ± 1.1% in assay [2] (setting [4]); 32.7 ± 1.9% in assay [2] (setting [5]); 14.8 ± 6.2% in assay [2] (setting [8]); 56.9 ± 20% in assay [2] (setting [9]); 8.93 ± 7.3% in assay [2] (setting [10]); 34.5 ± 5% in assay [2] (setting [11]).

As to `C[C@@H]1CN(c2c(F)c(N)c3c(=O)c(C(=O)O)cn(C4CC4)c3c2F)C[C@H](C)N1` [Sparfloxacin], the “percent growth inhibition of drug alone” value in assay [1] (7 µM) came out at 7.98 ± 7.7%; in assay [1] (20 µM) it was 8.47 ± 2.2%. Moreover, the percent growth inhibition in assay [2] (setting [4]) is 8.13 ± 2.9%; in assay [2] (setting [5]), 48.3 ± 15%.

For `Cc1c(F)c(N2CCNC(C)C2)cc2c1c(=O)c(C(=O)O)cn2C1CC1` (configuration not stated) [Grepafloxacin], the “percent growth inhibition of drug alone” value in assay [1] (7 µM) amounted to 4.82 ± 3.4%; in assay [1] (20 µM), 5.67 ± 6.1%. Further, the percent growth inhibition in assay [2] (setting [4]) turned out to be 10.7 ± 2.2%; in assay [2] (setting [5]), 43.1 ± 13%.

`CN(C)[C@@H]1C(O)=C(C(N)=O)C(=O)[C@@]2(O)C(O)=C3C(=O)c4c(O)cccc4[C@@](C)(O)[C@H]3C[C@@H]12` [Tetracycline hydrochloride]: the “percent growth inhibition of drug alone” value in assay [1] (7 µM) came out at 15.6 ± 7.1%; in assay [1] (20 µM), 56 ± 1.5%. Besides, the percent growth inhibition in assay [2] (setting [8]) came to 37.7 ± 19%; in assay [2] (setting [9]) it was 87.4 ± 7.6%.

`N[C@@H]1CCCCN(c2c(F)cc3c(=O)c(C(=O)O)cn(C4CC4)c3c2Cl)C1` [Besifloxacin hydrochloride]: the “percent growth inhibition of drug alone” value was -0.00521 ± 3.2% in assay [1] (7 µM) and 0.565 ± 2.8% in assay [1] (20 µM). Moreover, the percent growth inhibition amounted to 11.2 ± 6.6% in assay [2] (setting [4]) and 47.2 ± 8.9% in assay [2] (setting [5]).

With `CC[C@H]1OC(=O)[C@H](C)[C@@H](O[C@H]2C[C@@](C)(OC)[C@@H](O)[C@H](C)O2)[C@H](C)[C@@H](O[C@@H]2O[C@H](C)C[C@H](N(C)C)[C@H]2O)[C@](C)(OC)C[C@@H](C)C(=O)[C@H](C)[C@@H](O)[C@]1(C)O` [Clarithromycin], the “percent growth inhibition of drug alone” value in assay [1] (7 µM) turned out to be 24 ± 2.5%; in assay [1] (20 µM) it was 45.8 ± 3.4%. For the same molecule, the percent growth inhibition is 18.5 ± 3.6% in assay [2] (setting [8]) and 82 ± 23% in assay [2] (setting [9]).

Regarding `CN[C@H](CC(C)C)C(=O)N[C@H]1C(=O)N[C@@H](CC(N)=O)C(=O)N[C@H]2C(=O)N[C@H]3C(=O)N[C@H](C(=O)N[C@H](C(=O)O)c4cc(O)cc(O)c4-c4cc3ccc4O)[C@H](O)c3ccc(c(Cl)c3)Oc3cc2cc(c3O[C@@H]2O[C@H](CO)[C@@H](O)[C@H](O)[C@H]2O[C@H]2C[C@](C)(N)[C@H](O)[C@H](C)O2)Oc2ccc(cc2Cl)[C@H]1O` [Vancomycin hydrochloride], the entries for the “percent growth inhibition of drug alone” value in assay [3] (7 µM) and in assay [3] (20 µM) were -0.122 ± 3.9% and 2.39 ± 3.2%, respectively.

With `Clc1ccc(CO/N=C(\Cn2ccnc2)c2ccc(Cl)cc2Cl)c(Cl)c1` [Oxiconazole Nitrate], the “percent growth inhibition of drug alone” value in assay [3] (7 µM) is -1.93 ± 3.2%; in assay [3] (20 µM), 0.938 ± 7.4%.

As to `OCCN1CCN(CCCN2c3ccccc3Sc3ccc(C(F)(F)F)cc32)CC1` [Fluphenazine dihydrochloride], the “percent growth inhibition of drug alone” value in assay [3] (7 µM) is -3.05 ± 11%; in assay [3] (20 µM), -6.79 ± 4.6%.

Consider `Cc1cc2cc3c(C)cc(=O)oc3c(C)c2o1` [Trioxsalen], for which the “percent growth inhibition of drug alone” value turned out to be 3.89 ± 1.4% in assay [3] (7 µM) and 2.23 ± 3.8% in assay [3] (20 µM).

For `CSc1nc2cc(Cl)c(Oc3cccc(Cl)c3Cl)cc2[nH]1` [Triclabendazole], the “percent growth inhibition of drug alone” value turned out to be 4.64 ± 3.5% in assay [3] (7 µM) and 13.6 ± 14% in assay [3] (20 µM).

On to `COCCOC(=O)C1=C(C)NC(C)=C(C(=O)OC/C=C/c2ccccc2)C1c1cccc([N+](=O)[O-])c1` (configuration not stated) [Cilnidipine], for which the “percent growth inhibition of drug alone” value in assay [3] (7 µM) was 0.481 ± 4.9%; in assay [3] (20 µM), 5.42 ± 5.2%.

Take `Nc1ccc(S(=O)(=O)Nc2ccccn2)cc1` [Sulfapyridine]: the “percent growth inhibition of drug alone” value in assay [3] (7 µM) turned out to be 13.4 ± 8%; in assay [3] (20 µM) it was 49 ± 62%.

For the molecule `COc1cnc(NS(=O)(=O)c2ccc(N)cc2)nc1` [Sulfameter], the “percent growth inhibition of drug alone” value in assay [3] (7 µM) was determined as 9.61 ± 6.5%; in assay [3] (20 µM), 53.1 ± 59%.

With `CN(C)CCCN1c2ccccc2Sc2ccc(Cl)cc21` [Chlorpromazine hydrochloride], the “percent growth inhibition of drug alone” value in assay [3] (7 µM) was -3.02 ± 14%; in assay [3] (20 µM), -3.88 ± 4%.

On to `O=C1CN(/N=C/c2ccc([N+](=O)[O-])o2)C(=O)N1` [Nitrofurantoin], for which the “percent growth inhibition of drug alone” value in assay [3] (7 µM) was -0.502 ± 7.5%; in assay [3] (20 µM), -2.63 ± 2.2%.

Consider `Clc1ccc(C(Cn2ccnc2)OCc2csc3c(Cl)cccc23)c(Cl)c1` (configuration not stated) [Sertaconazole nitrate], for which the “percent growth inhibition of drug alone” value was determined as 7.14 ± 10% in assay [3] (7 µM) and 15.8 ± 21% in assay [3] (20 µM).

Consider `CC(=O)[C@@]12O[C@](C)(c3ccccc3)O[C@@H]1C[C@H]1[C@@H]3CCC4=CC(=O)CC[C@]4(C)[C@H]3CC[C@@]12C` [Algestone acetophenide], for which the “percent growth inhibition of drug alone” value in assay [3] (7 µM) came out at 4.11 ± 1.4%; in assay [3] (20 µM), 7.1 ± 6.4%.

For `CN(C)CCOC1=Cc2ccccc2Sc2ccc(Cl)cc21` [Zotepine], the “percent growth inhibition of drug alone” value in assay [3] (7 µM) stood at 0.656 ± 10%; in assay [3] (20 µM), 0.833 ± 2.1%.

Regarding `O=C1Nc2ccc(Cl)cc2[C@@](C#CC2CC2)(C(F)(F)F)O1` [Efavirenz], the “percent growth inhibition of drug alone” value in assay [3] (7 µM) is 0.53 ± 4.9%; in assay [3] (20 µM) it was -6.45 ± 1.5%.

Regarding `Oc1c(I)cc(Cl)c2cccnc12` [Clioquinol], the “percent growth inhibition of drug alone” value in assay [3] (7 µM) is 17.6 ± 34%; in assay [3] (20 µM), 99.98 ± 0.11%.
